# According to article PMC6073877:
# No constants are given. Whether binding was seen depends on the method and setting. Binding seen in cells or lysates may run through a third protein. Some binding calls cover weakened binding; strength is not graded here.
# T1: flightless I (human (endogenous in HaCaT and HFF)) (UniProt Q13045)
# T1 sequence: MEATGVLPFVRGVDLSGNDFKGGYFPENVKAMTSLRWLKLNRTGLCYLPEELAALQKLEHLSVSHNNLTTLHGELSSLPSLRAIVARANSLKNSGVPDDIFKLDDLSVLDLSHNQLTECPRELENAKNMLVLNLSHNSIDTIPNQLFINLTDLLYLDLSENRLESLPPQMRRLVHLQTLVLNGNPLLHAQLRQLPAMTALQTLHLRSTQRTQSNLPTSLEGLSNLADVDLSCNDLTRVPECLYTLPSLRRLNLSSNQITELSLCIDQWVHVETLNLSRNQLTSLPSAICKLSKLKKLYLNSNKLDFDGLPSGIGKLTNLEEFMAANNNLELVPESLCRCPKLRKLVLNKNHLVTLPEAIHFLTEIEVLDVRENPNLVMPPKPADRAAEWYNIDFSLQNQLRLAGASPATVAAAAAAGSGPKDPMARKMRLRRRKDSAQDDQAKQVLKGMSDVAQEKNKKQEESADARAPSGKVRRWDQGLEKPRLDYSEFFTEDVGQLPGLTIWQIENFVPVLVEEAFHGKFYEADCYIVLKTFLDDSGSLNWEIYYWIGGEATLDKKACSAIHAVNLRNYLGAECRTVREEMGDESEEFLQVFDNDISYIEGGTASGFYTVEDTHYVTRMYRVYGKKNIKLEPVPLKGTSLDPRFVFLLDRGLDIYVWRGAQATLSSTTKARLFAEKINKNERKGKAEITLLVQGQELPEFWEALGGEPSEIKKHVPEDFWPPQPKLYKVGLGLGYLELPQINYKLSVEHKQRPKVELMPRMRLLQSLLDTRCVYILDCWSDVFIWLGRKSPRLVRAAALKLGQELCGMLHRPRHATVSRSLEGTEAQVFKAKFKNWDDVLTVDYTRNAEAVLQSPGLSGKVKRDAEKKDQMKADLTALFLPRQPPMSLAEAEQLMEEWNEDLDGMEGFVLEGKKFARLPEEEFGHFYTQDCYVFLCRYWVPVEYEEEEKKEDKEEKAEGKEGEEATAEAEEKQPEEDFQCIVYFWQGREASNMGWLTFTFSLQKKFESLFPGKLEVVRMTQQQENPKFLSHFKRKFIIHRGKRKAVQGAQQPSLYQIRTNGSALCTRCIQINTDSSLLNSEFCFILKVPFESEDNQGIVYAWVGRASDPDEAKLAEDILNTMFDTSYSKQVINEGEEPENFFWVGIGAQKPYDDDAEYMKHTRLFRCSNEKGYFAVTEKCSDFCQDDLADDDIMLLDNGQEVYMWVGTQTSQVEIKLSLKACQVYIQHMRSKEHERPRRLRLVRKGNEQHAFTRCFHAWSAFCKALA
# B1: Leucine-rich repeat flightless-interacting protein-1 (protein, UniProt Q32MZ4 1-808)
# chain: MTSPAAAQSREIDCLSPEAQKLAEARLAAKRAARAEAREIRMKELERQQKEEDSERYSRRSRRNTSASDEDERMSVGSRGSLRVEERPEKDFTEKGSRNMPGLSAATLASLGGTSSRRGSGDTSISIDTEASIREIKELNELKDQIQDVEGKYMQGLKEMKDSLAEVEEKYKKAMVSNAQLDNEKTNFMYQVDTLKDMLLELEEQLAESRRQYEEKNKEFEREKHAHSILQFQFAEVKEALKQREEMLEKHGIILNSEIATNGETSDTLNNVGYQGPTKMTKEELNALKSTGDGTLGRASEVEVKNEIVANVGKREILHNTEKEQHTEDTVKDCVDIEVFPAGENTEDQKSSEDTAPFLGTLAGATYEEQVQSQILESSSLPENTVQVESNEVMGAPDDRTRTPLEPSNCWSDLDGGNHTENVGEAAVTQVEEQAGTVASCPLGHSDDTVYHDDKCMVEVPQELETSTGHSLEKEFTNQEAAEPKEVPAHSTEVGRDHNEEEGEETGLRDEKPIKTEVPGSPAGTEGNCQEATGPSTVDTQNEPLDMKEPDEEKSDQQGEALDSSQKKTKNKKKKNKKKKSPVPVETLKDVKKELTYQNTDLSEIKEEEQVKSTDRKSAVEAQNEVTENPKQKIAAESSENVDCPENPKIKLDGKLDQEGDDVQTAAEEVLADGDTLDFEDDTVQSSGPRAGGEELDEGVAKDNAKIDGATQSSPAEPKSEDADRCTLPEHESPSQDISDACEAESTERCEMSEHPSQTVRKALDSNSLENDDLSAPGREPGHFNPESREDTRGGNEKGKSKEDCTMS
# Target: T1, flightless I (human (endogenous in HaCaT and HFF))
# Assay: co-IP; confluent HaCaTs and HFFs, scratch-wounded, migrated 2.5 h; lysis buffer 50 mM Tris, 1 mM EDTA, 50 mM NaCl, 0.1% Triton X-100; Flii or LRRFIP-1 antibodies with protein G-agarose beads overnight at 4 °C; Western blot with Flii or LRRFIP-1 antibody
binder,measurement,value
B1,binding,binds
